Assay: Adsorption of aromatic substances on CTS crystalline anhydrate (Example C-3)
Assay type: physicochemical
Details: aromatic substance adsorbed per 1 g of CTS crystalline anhydrate
Method: The following explains the experimental method in detail. […] The amount of the adsorbed aromatic substances was calculated by measuring the weight of the resulting powders and subtracting their starting powder weight (4 g).

For `CC(C)CC(=O)O` [Isovaleric Acid], the “Amount of Adsorbed Substance” value was 0.46 g.

Source: patent US20050013914A1, “Method of sustaining aroma and use thereof” (priority 2001, published 2005)
